According to paper PMC10716038, “Talin and kindlin use integrin tail allostery and direct binding to activate integrins” (Nature Structural & Molecular Biology, 2023):
Residue numbers refer to the chain shown, from its start. In names and notes the source's numbering stands. Results are given in words; binding and its absence hold for the method and conditions named. Some entries that bind do so weakly or less than the wild type. Values belong to the molecule of their own block, whether it stands above or below them.

The chains behind the UniProt entries cited, without tags or fusion partners. Where a name states a change or a piece, a line headed by the entry shows the natural chain unless it says otherwise. A line that says so, or that is headed by a name, gives the form on record, which may keep a tag or linker. Residues count along the entry.
β1 transmembrane and cytoplasmic tail polypeptide (β1-TM–CT) in nanodiscs (P05556, residues 726-798): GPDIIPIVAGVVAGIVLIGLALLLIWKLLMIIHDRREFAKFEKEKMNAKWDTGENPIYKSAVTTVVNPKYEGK
ATTO 488-labelled β1-CT (488–β1-CT) (P05556, residues 752-798): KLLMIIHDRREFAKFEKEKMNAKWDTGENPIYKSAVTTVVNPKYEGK
ATTO 488-labelled β1-CT^Y783A (P05556, form named): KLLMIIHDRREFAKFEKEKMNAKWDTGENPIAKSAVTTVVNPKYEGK

Experiments:
[1] = target: β1 transmembrane and cytoplasmic tail polypeptide (β1-TM–CT) in nanodiscs (UniProt P05556); test: flow cytometry-based reporter-displacement assay (FC-RDA) on beads; biotinylated TM–CT in nanodiscs (10% PIP2 or PIP3, 90% DMPC) on streptavidin Dynabeads; reporters 100 nM 565–THD1 or 50 nM 647–KIND2; unlabelled THD1 or KIND2 titrated; 20 mM Tris pH 7.5, 200 mM NaCl, 10 min at room temperature; the lipids add to the binding; both purified
[2] = target: T1, α5-TM lacking the cytoplasmic domain (tailless α5-TM) in nanodiscs (UniProt P11688); test: as above
T1 sequence (chain, biotin (biotin-maleimide)): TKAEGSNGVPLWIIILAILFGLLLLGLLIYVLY

[3] = target: ATTO 488-labelled β1-CT (488–β1-CT) (UniProt P05556); test: MST; as a7, with a second unlabelled protein present at near-saturating concentration (named in the quantity or in the printed words); apparent constants (Kd,app*); both purified
[4] = target: ATTO 488-labelled β1-CT (488–β1-CT) (UniProt P05556); test: MST; ATTO 488-labelled β-CT peptide (50–200 nM) held constant, one unlabelled protein titrated; 20 mM Tris pH 7.5, 200 mM NaCl, 1 mM TCEP, 0.05% Tween-20; apparent affinities (near-saturation only); both purified
[5] = target: T2, F0 domain of KIND2 (KIND2-F0) (UniProt Q8CIB5); test: NMR titration; 15N-labelled KIND2-F0 (100 µM) or KIND2-F0 Y13A (70 µM) observed (1H-15N HSQC); unlabelled TLN1-F3 or TLN1-F3 K402E added at equal concentration; 298 K; both purified
T2 sequence: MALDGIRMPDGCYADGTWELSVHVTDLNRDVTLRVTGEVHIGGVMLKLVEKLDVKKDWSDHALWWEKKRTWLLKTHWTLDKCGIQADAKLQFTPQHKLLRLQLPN

[6] = target: ATTO 488-labelled β1-CT^Y783A (UniProt P05556); test: MST; as a7, with a second unlabelled protein present at near-saturating concentration (named in the quantity or in the printed words); apparent constants (Kd,app*); both purified
[7] = target: T3, ATTO 488-labelled β3-CT^Y772A (UniProt O54890); test: as above
T3 sequence (peptide, ATTO 488 at the N terminus): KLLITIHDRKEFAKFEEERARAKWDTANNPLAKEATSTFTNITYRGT

B2: kindlin-2 (KIND2) (protein, UniProt Q8CIB5 1-680)
chain: MALDGIRMPDGCYADGTWELSVHVTDLNRDVTLRVTGEVHIGGVMLKLVEKLDVKKDWSDHALWWEKKRTWLLKTHWTLDKCGIQADAKLQFTPQHKLLRLQLPNMKYVKVKVNFSDRVFKAVSDICKTFNIRHPEELSLLKKPRDPTKKKKKKLDDQSEDEALELEGPLIMPGSGSIYSSPGLYSKTMTPTYDAHDGSPLSPTSAWFGDSALSEGNPGILAVSQPVTSPEILAKMFKPQALLDKAKTNQGWLDSSRSLMEQDVKENEALLLRFKYYSFFDLNPKYDAIRINQLYEQAKWALLLEEIECTEEEMMMFAALQYHINKLSIMTSENHLNNSDKEVDEVDAALSDLEITLEGGKTSTILGDITSIPELADYIKVFKPKKLTLKGYKQYWCTFKDTSISCYKSREESSGTPAHQLNLRGCEVTPDVNISGQKFNIKLLIPVAEGMNEIWLRCDNEKQYAHWMAACRLASKGKTMADSSYNLEVQNILSFLKMQHLNPDPQLIPDQITTDVNPECLVSPRYLKKYKSKQITARILEAHQNVAQMSLIEAKMRFIQAWQSLPEFGITHFIARFQGGKREELIGIAYNRLIRMDASTGDAIKTWRFSNMKQWNVNWEIKMVTVEFADEVRLSFICTEVDCKVVHEFIGGYIFLSTRAKDQNESLDEEMFYKLTSGWV
- binding [1]: binds
- binding [2]: no binding
- binding [6]: binds
- binding [3]: binds
- binding [7]: binds
- binding [4]: binds

B3: KIND2^Y13A (protein, UniProt Q8CIB5 1-680)
chain: B2 chain with Y13A
- binding [1]: binds

Now from value to molecule:

- binding [1]: binds
Molecule: THD1^K402E (from UniProt P26039 1-405) (domain or fragment)

- binding [1]: binds
- binding [2]: no binding
- binding [3]: binds
- binding [4]: binds
Molecule: talin-1 head domain (THD1) (from UniProt P26039 1-405) (domain or fragment)

- binding [5]: binds
B1: F3 domain of TLN1 (TLN1-F3) (domain or fragment, UniProt P26039 305-405, looked up)
chain: LKTYGVSFFLVKEKMKGKNKLVPRLLGITKECVMRVDEKTKEVIQEWSLTNIKRWAASPKSFTLDFGDYQDGYYSVQTTEGEQIAQLIAGYIDIILKKKKS
notes: Used unlabelled, 15N-labelled or partially deuterated in NMR; also called T1-F3; source: E. coli (DE3) Rosetta 2, purified (IMAC, SEC); not shown: His10, N-terminal, cleaved; SUMO, N-terminal, cleaved
